# The other results are listed elsewhere or left out.
# B1: ERGIC1-EDTA (Homo sapiens), Q969X5 (protein)
# chain: MKFLVNVALVFMVVYISYIYAAAHMHHHHHHDYDIPTTENLYFQGSEVVNELYVDDPDKDSGGKIDVSLNISLPNLHCELVGLDIQDEMGRHEVGHIDNSMKIPLNNGAGCRFEGQFSINKVPGNFHVSTHSATAQPQNPDMTHVIHKLSFGDTLQVQNIHGAFNALGGADRLTSNPLASHDYILKIVPTVYEDKSGKQRYSYQYTVANKEYVAYSHTGRIIPAIWFRYDLSPITVKYTE
# Key:
# Assay in all cases: glycan array binding signal (z-score within array); higher = stronger binding
# Settings in all cases: glycan notation: IUPAC condensed, linker removed
# [1] = biological target: Neu5Ac(a2-3)Gal(b1-3)GlcNAc(b1-6)GalNAc
# In short: (§1)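 Arrays were curated from the Consortium for Functional Glycomics database, 3228 in total, and kept only where the protein sequence was available. Binding is expressed as a within-array Z-score. This score was averaged across arrays of the same protein sequence at different concentrations or buffers and across linkers, and negative values can be read as non-binding.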
# [2] = biological target: Neu5Ac(a2-3)Gal(b1-3)GlcNAc6S
# In short: as §1
# [3] = biological target: Neu5Ac(a2-3)Gal(b1-3)[Fuc(a1-4)]GlcNAc
# In short: as §1
# [4] = biological target: Neu5Ac(a2-3)Gal(b1-3)[Fuc(a1-4)]GlcNAc(b1-3)Gal(b1-3)[Fuc(a1-4)]GlcNAc
# In short: as §1
# [5] = biological target: Neu5Ac(a2-3)Gal(b1-3)[Fuc(a1-4)]GlcNAc(b1-3)Gal(b1-4)[Fuc(a1-3)]GlcNAc
# In short: as §1
# [6] = biological target: Neu5Ac(a2-3)Gal(b1-3)[GlcNAc(b1-6)]GalNAc
# In short: as §1
# [7] = biological target: Neu5Ac(a2-3)Gal(b1-3)[Neu5Ac(a2-6)]GalNAc
# In short: as §1
# [8] = biological target: Neu5Ac(a2-3)Gal(b1-3)[Neu5Ac(a2-6)]GlcNAc(b1-3)[Fuc(a1-3)[Gal(b1-4)]GlcNAc(b1-6)]Gal(b1-4)Glc
# In short: as §1
# [9] = biological target: Neu5Ac(a2-3)Gal(b1-3)]Neu5Ac(a2-3)Gal(b1-4)]GlcNAc
# In short: as §1
# Neu5Ac(a2-3)Gal(b1-4)Glc = biological target: Neu5Ac(a2-3)Gal(b1-4)Glc
# In short: as §1
# [10] = biological target: Neu5Ac(a2-3)Gal(b1-4)GlcNAc
# In short: as §1
# [11] = biological target: Neu5Ac(a2-3)Gal(b1-4)GlcNAc(b1-2)Man
# In short: as §1
# [12] = biological target: Neu5Ac(a2-3)Gal(b1-4)GlcNAc(b1-2)Man(a1-3)[GlcNAc(b1-4)][Neu5Ac(a2-3)Gal(b1-4)GlcNAc(b1-2)Man(a1-6)]Man(b1-4)GlcNAc(b1-4)GlcNAc
# In short: as §1
# [13] = biological target: Neu5Ac(a2-3)Gal(b1-4)GlcNAc(b1-2)Man(a1-3)[Neu5Ac(a2-3)Gal(b1-4)GlcNAc(b1-2)Man(a1-6)]Man(b1-4)GlcNAc(b1-4)GlcNAc
# In short: as §1
# [14] = biological target: Neu5Ac(a2-3)Gal(b1-4)GlcNAc(b1-2)Man(a1-3)[Neu5Ac(a2-3)Gal(b1-4)GlcNAc(b1-2)Man(a1-6)]Man(b1-4)GlcNAc(b1-4)[Fuc(a1-6)]GlcNAc
# In short: as §1
# [15] = biological target: Neu5Ac(a2-3)Gal(b1-4)GlcNAc(b1-2)Man(a1-3)[Neu5Ac(a2-6)Gal(b1-4)GlcNAc(b1-2)Man(a1-6)]Man(b1-4)GlcNAc(b1-4)GlcNAc
# In short: as §1
# [16] = biological target: Neu5Ac(a2-3)Gal(b1-4)GlcNAc(b1-2)[Neu5Ac(a2-3)Gal(b1-4)GlcNAc(b1-4)]Man(a1-3)[GlcNAc(b1-4)][Neu5Ac(a2-3)Gal(b1-4)GlcNAc(b1-2)[Neu5Ac(a2-3)Gal(b1-4)GlcNAc(b1-6)]Man(a1-6)]Man(b1-4)GlcNAc(b1-4)GlcNAc
# In short: as §1
# [17] = biological target: Neu5Ac(a2-3)Gal(b1-4)GlcNAc(b1-2)[Neu5Ac(a2-3)Gal(b1-4)GlcNAc(b1-4)]Man(a1-3)[GlcNAc(b1-4)][Neu5Ac(a2-3)Gal(b1-4)GlcNAc(b1-4)Man(a1-6)]Man(b1-4)GlcNAc(b1-4)GlcNAc
# In short: as §1
# [18] = biological target: Neu5Ac(a2-3)Gal(b1-4)GlcNAc(b1-2)[Neu5Ac(a2-3)Gal(b1-4)GlcNAc(b1-6)]Man(a1-6)[Neu5Ac(a2-3)Gal(b1-4)GlcNAc(b1-2)Man(a1-3)][GlcNAc(b1-4)]Man(b1-4)GlcNAc(b1-4)GlcNAc
# In short: as §1
# [19] = biological target: Neu5Ac(a2-3)Gal(b1-4)GlcNAc(b1-3)Gal
# In short: as §1
# [20] = biological target: Neu5Ac(a2-3)Gal(b1-4)GlcNAc(b1-3)Gal(b1-3)GlcNAc
# In short: as §1
# [21] = biological target: Neu5Ac(a2-3)Gal(b1-4)GlcNAc(b1-3)Gal(b1-4)GlcNAc
# In short: as §1
# [22] = biological target: Neu5Ac(a2-3)Gal(b1-4)GlcNAc(b1-3)Gal(b1-4)GlcNAc(b1-2)Man(a1-3)[Neu5Ac(a2-3)Gal(b1-4)GlcNAc(b1-3)Gal(b1-4)GlcNAc(b1-2)Man(a1-6)]Man(b1-4)GlcNAc(b1-4)GlcNAc
# In short: as §1
# [23] = biological target: Neu5Ac(a2-3)Gal(b1-4)GlcNAc(b1-3)Gal(b1-4)GlcNAc(b1-3)Gal(b1-4)GlcNAc
# In short: as §1
# [24] = biological target: Neu5Ac(a2-3)Gal(b1-4)GlcNAc(b1-3)Gal(b1-4)GlcNAc(b1-3)Gal(b1-4)GlcNAc(b1-2)Man(a1-3)[Neu5Ac(a2-3)Gal(b1-4)GlcNAc(b1-3)Gal(b1-4)GlcNAc(b1-3)Gal(b1-4)GlcNAc(b1-2)Man(a1-6)]GalNAc
# In short: as §1
# [25] = biological target: Neu5Ac(a2-3)Gal(b1-4)GlcNAc(b1-3)Gal(b1-4)GlcNAc(b1-3)GalNAc
# In short: as §1
# [26] = biological target: Neu5Ac(a2-3)Gal(b1-4)GlcNAc(b1-3)Gal(b1-4)GlcNAc(b1-3)[Neu5Ac(a2-3)Gal(b1-4)GlcNAc(b1-3)Gal(b1-4)GlcNAc(b1-6)]GalNAc
# In short: as §1
# [27] = biological target: Neu5Ac(a2-3)Gal(b1-4)GlcNAc(b1-3)Gal(b1-4)GlcNAc(b1-6)[Gal(b1-3)]GalNAc
# In short: as §1
# [28] = biological target: Neu5Ac(a2-3)Gal(b1-4)GlcNAc(b1-3)Gal(b1-4)[Fuc(a1-3)]GlcNAc
# In short: as §1
# [29] = biological target: Neu5Ac(a2-3)Gal(b1-4)GlcNAc(b1-3)GalNAc
# In short: as §1
binder,measurement,setting,value
B1,glycan array binding signal (z-score),[1],-0.308
same,glycan array binding signal (z-score),[2],0.014
same,glycan array binding signal (z-score),[3],-0.492
same,glycan array binding signal (z-score),[4],-0.934
same,glycan array binding signal (z-score),[5],0.202
same,glycan array binding signal (z-score),[6],-1.11
same,glycan array binding signal (z-score),[7],-0.09
same,glycan array binding signal (z-score),[8],0.117
same,glycan array binding signal (z-score),[9],0.343
same,glycan array binding signal (z-score),Neu5Ac(a2-3)Gal(b1-4)Glc,0.163
same,glycan array binding signal (z-score),[10],-0.75
same,glycan array binding signal (z-score),[11],0.592
same,glycan array binding signal (z-score),[12],0.241
same,glycan array binding signal (z-score),[13],-0.612
same,glycan array binding signal (z-score),[14],0.181
same,glycan array binding signal (z-score),[15],-1.13
same,glycan array binding signal (z-score),[16],-0.304
same,glycan array binding signal (z-score),[17],0.127
same,glycan array binding signal (z-score),[18],-0.63
same,glycan array binding signal (z-score),[19],-0.734
same,glycan array binding signal (z-score),[20],-0.841
same,glycan array binding signal (z-score),[21],-0.161
same,glycan array binding signal (z-score),[22],0.508
same,glycan array binding signal (z-score),[23],-0.486
same,glycan array binding signal (z-score),[24],0.751
same,glycan array binding signal (z-score),[25],-0.406
same,glycan array binding signal (z-score),[26],0.647
same,glycan array binding signal (z-score),[27],-0.989
same,glycan array binding signal (z-score),[28],-0.82
same,glycan array binding signal (z-score),[29],0.024

# Reformatted as tab-separated lines: entries from further up.
binder	measurement	setting	value
B1	glycan array binding signal (z-score)	[5]	0.202
same	glycan array binding signal (z-score)	[7]	-0.09
same	glycan array binding signal (z-score)	[10]	-0.75
same	glycan array binding signal (z-score)	[11]	0.592
same	glycan array binding signal (z-score)	[14]	0.181
same	glycan array binding signal (z-score)	[23]	-0.486
same	glycan array binding signal (z-score)	[27]	-0.989

# Reference: the supplement of paper PMC8728848
